For 2 molecules, binding results are on record in publication PMC6114981.

By UniProt entry, the sequences of proteins in these tests, tags left out. Where a name states a change or a piece, a line headed by the entry shows the natural chain unless it says otherwise.
UniProt P11474: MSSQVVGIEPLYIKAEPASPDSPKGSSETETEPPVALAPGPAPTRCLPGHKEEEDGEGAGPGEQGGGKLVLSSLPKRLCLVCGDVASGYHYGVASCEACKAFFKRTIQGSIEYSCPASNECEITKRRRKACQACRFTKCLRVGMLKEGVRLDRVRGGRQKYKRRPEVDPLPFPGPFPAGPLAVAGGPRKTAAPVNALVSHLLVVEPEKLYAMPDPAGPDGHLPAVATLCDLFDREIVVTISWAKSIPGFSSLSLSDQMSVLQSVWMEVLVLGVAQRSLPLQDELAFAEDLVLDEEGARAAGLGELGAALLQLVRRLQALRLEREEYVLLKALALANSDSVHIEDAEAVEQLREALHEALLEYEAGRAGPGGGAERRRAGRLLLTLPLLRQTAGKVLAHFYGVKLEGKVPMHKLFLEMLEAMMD
UniProt Q01469: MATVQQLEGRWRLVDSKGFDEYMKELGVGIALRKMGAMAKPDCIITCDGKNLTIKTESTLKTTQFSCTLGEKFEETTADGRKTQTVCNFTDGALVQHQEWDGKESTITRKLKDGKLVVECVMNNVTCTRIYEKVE

Where two headings read alike, the source gives them in different places. No constants are given. Whether binding was seen depends on the method and setting. In cells and extracts the contact can be indirect. For part of these data: A result given as binding can be weak or reduced; the word gives no strength.

What all share (experiment): pull-down; GST or GST-ERRα (wt, Δ300aa, Δ398aa) incubated with PC-3 whole cell lysates and glutathione sepharose overnight at 4°C; washed three times with 50 mM Tris-HCl pH 7.5, 150 mM NaCl, 0.05% Tween20; western blot for GST, FABP5 and PGC-1β; only the target purified
(A western blot detects proteins with antibodies after separation by electrophoresis.)

Assay [1] deals with GST-ERRα Δ300aa (deletion mutant lacking the ligand-binding domain) (human) (UniProt P11474).
Assay [2] concerns the target GST-ERRα Δ398aa (deletion mutant lacking the activation function 2 domain) (human) (UniProt P11474).
Assay [3] has as its target GST-ERRα Δ300aa (deletion mutant lacking the ligand-binding domain) (human) (UniProt P11474). This is another data set of the same source.

Regarding “fatty acid-binding protein 5 (FABP5), endogenous in PC-3 cells (from UniProt Q01469 1-135)”, the results for the binding result in assay [1] and in assay [2] were “no binding” and “binds weakly”, respectively.

B1: peroxisome proliferator-activated receptor gamma coactivator 1-beta (PGC-1β), endogenous in PC-3 cells (protein, UniProt Q86YN6 1-1023)
chain: MAGNDCGALLDEELSSFFLNYLADTQGGGSGEEQLYADFPELDLSQLDASDFDSATCFGELQWCPENSETEPNQYSPDDSELFQIDSENEALLAELTKTLDDIPEDDVGLAAFPALDGGDALSCTSASPAPSSAPPSPAPEKPSAPAPEVDELSLLQKLLLATSYPTSSSDTQKEGTAWRQAGLRSKSQRPCVKADSTQDKKAPMMQSQSRSCTELHKHLTSAQCCLQDRGLQPPCLQSPRLPAKEDKEPGEDCPSPQPAPASPRDSLALGRADPGAPVSQEDMQAMVQLIRYMHTYCLPQRKLPPQTPEPLPKACSNPSQQVRSRPWSRHHSKASWAEFSILRELLAQDVLCDVSKPYRLATPVYASLTPRSRPRPPKDSQASPGRPSSVEEVRIAASPKSTGPRPSLRPLRLEVKREVRRPARLQQQEEEDEEEEEEEEEEEKEEEEEWGRKRPGRGLPWTKLGRKLESSVCPVRRSRRLNPELGPWLTFADEPLVPSEPQGALPSLCLAPKAYDVERELGSPTDEDSGQDQQLLRGPQIPALESPCESGCGDMDEDPSCPQLPPRDSPRCLMLALSQSDPTFGKKSFEQTLTVELCGTAGLTPPTTPPYKPTEEDPFKPDIKHSLGKEIALSLPSPEGLSLKATPGAAHKLPKKHPERSELLSHLRHATAQPASQAGQKRPFSCSFGDHDYCQVLRPEGVLQRKVLRSWEPSGVHLEDWPQQGAPWAEAQAPGREEDRSCDAGAPPKDSTLLRDHEIRASLTKHFGLLETALEEEDLASCKSPEYDTVFEDSSSSSGESSFLPEEEEEEGEEEEEDDEEEDSGVSPTCSDHCPYQSPPSKANRQLCSRSRSSSGSSPCHSWSPATRRNFRCESRGPCSDRTPSIRHARKRREKAIGEGRVVYIQNLSSDMSSRELKRRFEVFGEIEECEVLTRNRRGEKYGFITYRCSEHAALSLTKGAALRKRNEPSFQLSYGGLRHFCWPRYTDYDSNSEEALPASGKSKYEAMDFDSLLKEAQQSLH
On to B1, for which, in assay [3], the binding entry is given as “no binding”.
